Results of single-concentration screens

Data taken from ChEMBL document CHEMBL3988442, “University of Dundee, Small-Polar-MMV Screening Library” (2021).

Mtb glucose medium: 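Phenotypic screen: M. tuberculosis growth, glucose 7H9 medium, 3 days; the read-out is not stated. Tested at 50 µM. Direction is inferred from retests: higher values go with more growth inhibition. About 69,000 compounds were tested under these conditions; 1.1% (about 760) showed 50% or more at least once.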
Mtb cholesterol medium: 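Whole-cell growth test on Mycobacterium tuberculosis, read after 4 days in a medium based on cholesterol and the lipid DPPC; the read-out is not stated. Compounds at 50 µM. Direction is inferred from retests: higher values go with more growth inhibition. Size under these conditions: about 69,000 compounds, about 370 of them at 50% or above in at least one test.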

Results are given as percent effect. The record does not define 0% and 100%; most values in the screen are far below 50% and negative numbers occur (in some assays of this library far below -100). This is an unselected part of the compounds tested. Two or more numbers in one place are separate tests of the same structure; such repeats can differ widely. A dash means the value is not listed here; it may have been measured.

compound | Mtb glucose medium | Mtb cholesterol medium
C1CCC(CN2Cc3nnn(CC4CC4)c3C(COCC3CC3)C2)C1.O=C(O)C(F)(F)F (configuration not stated) | 25.82 | -5.389
CC(NC(=O)c1ccc(CS(C)(=O)=O)o1)c1ccc(F)c(F)c1 (configuration not stated) | 3.034 and 19.57 | 10.66
O=C(O)C(F)(F)F.[H][C@]12CCN(C(=O)c3cnccn3)C[C@@]1([H])[C@H](CN1CCCC1)OC2 | 1.646 | 1.925
COC(=O)c1ccc2c(-c3ccnc(N[C@@H](C)CO)n3)c[nH]c2c1 | 4.737 | -8.924
c1cc(CNCC2Cn3nncc3CO2)cs1 (configuration not stated) | -8.017 and -8.183 | 4.429
c1cc(CN2CCc3nc(N4CCOCC4)nc(NC4CC4)c3C2)co1 | 4.622 and -3.682 | -8.57 and 8.457
Cn1cccc1C(=O)N1CCc2ncnc(C3CC3)c2CC1 | -7.625 | -29.3
CCc1ccc2nc(NCC(O)CO)cc(C)c2c1 (configuration not stated) | -6.595 | -11.73 and -0.1752
Cc1nc(CN2CC[C@H](OCC3CC3)[C@@H]2Cc2cccnc2)cs1.O=C(O)C(F)(F)F.O=C(O)C(F)(F)F | 17.44 | 21.09
COc1cc(C(C#N)NC(=O)CC2=CCCCC2)cc(OC)c1OC (configuration not stated) | 6.721 | 11.79
COc1ccc(CCNC(=O)c2ccc(=O)n(C)c2)c(Cl)c1 | -20.26 | -0.8787
[H][C@@]12CCN(C(=O)c3cnc(CC)nc3)C[C@@]([H])(CC1)N2C | -4.586 | 22.88
CCNc1ncc2c(n1)CN(c1ccc(C)c(C)c1)C2=O | -4.585 | -6.23
O=C(O)CC(O)(CC(=O)O)C(=O)O.c1cnc2[nH]nc(C3CCN(Cc4ccsc4)CC3)c2c1 | 5.916 | -8.234
COCCNC(=O)CCN1C(=O)CC2(CCCC2)C1=O | 17.03 | -10.06
CCC(C)(C)n1nnnc1C(c1cccs1)N1CCc2ccccc2C1 (configuration not stated) | 3.368 | 4.982 and 3.391
Cc1cc(C)n(-c2nc(C(=O)NCCS(=O)(=O)N3CCCCC3)cs2)n1 | 11.06 | 12.27
Cc1nccn1-c1cccc(C2CCCN(C(=O)c3cc[nH]n3)C2)n1 (configuration not stated) | -32.83 | -3.94
Cc1nc2c(c(NC3CCN(Cc4cccnc4)CC3)n1)CCNCC2 | 20.48 | -17.59
CCCc1cc(N2CCC(NCC3(O)CCN(C)CC3)CC2)nc(C)n1 | -1.972 and 12.55 | -2.235
COc1ccc(C(=O)N(c2ccc(OC)c(F)c2)C(C)C)cn1 | -17.58 | -8.301
Cc1ccc(NC2CCN(C(=O)COC3CCCCC3)CC2)nn1 | -12.97 | 0.5259
O=C(c1cccnc1N1CCOC(c2ccc(Cl)cc2)C1)N1CCCC1 (configuration not stated) | -9.018 | -7.312
O=S(=O)(c1cccc(F)c1)N1CCCCC1c1ccn[nH]1 (configuration not stated) | 7.138 | -14
O=C(O)C(F)(F)F.O=C(O)C(F)(F)F.O=C(c1ccco1)N1CC[C@@H](N2CCOCC2)[C@@H]1Cc1ccncc1 | -25.3 | -6.668 and -18.81
O=C1NCCCCC1Sc1nnc(N2CCCC2)n1C1CC1 (configuration not stated) | -9.919 and -6.945 | -5.99
Cn1nnnc1SCCNC1CCN(c2ccc3c(c2)OCO3)CC1 | 0.2791 and -4.719 | -0.05223
Cc1nc2sccn2c1CNc1ccc(C(=O)O)cc1 | 0.8785 | -17.85
COc1ccc(C[C@H]2CN(c3nnc(C)s3)CC[C@@H]2OC)cc1.O=C(O)C(F)(F)F | 55.78 | 57.7
CCCc1cncnc1N1CCC(NCc2ccc(O)cc2)CC1 | 2.423 and -3.44 | -17.39
COC(=O)CN(C(=O)c1ccc(Cl)cn1)c1cccc(F)c1 | 1.984 and -3.675 | 13.54
CN1CCCN(C(C(=O)O)c2ccc3c(c2)OCO3)CC1 (configuration not stated) | -19.66 | 2.854 and -16.15
Cc1noc(C(C)C)c1C(=O)NCCCN1CCNCC1.Cl | -2.452 | -12.88
COc1cccc(C(=O)Oc2cc(=O)n3cccc(C)c3n2)c1 | 19.92 | -16.45
CC1(C)CN(c2cc(C3CC3)ncn2)C[C@]1(C)O | -25.16 | -8.254
c1ccc2oc(CCCN3CCCC(Cn4cncn4)C3)nc2c1 (configuration not stated) | -17.02 and 1.368 | -6.508
COCc1nnc(-c2cccc(C(=O)OC(C)C)c2)o1 | 16.1 and 5.306 | -0.06808
CCOCC(O)CN1CCN(C(=O)C2CC2)CC1 (configuration not stated) | 7.798 | -15.2
Cc1nc(C)n(CC2CCCN(Cc3ccccc3C#N)C2)n1 (configuration not stated) | -2.629 and -0.817 | -8.285
CCc1noc(C(C)N2CCN(S(=O)(=O)N3CCCC3)CC2)n1 (configuration not stated) | -20.2 | -8.932
Cc1ccc(-c2nc(CN3CCCC(Cn4cncn4)C3)no2)cc1 (configuration not stated) | 5.064 | -6.8
CC1(c2[nH]ncc2C(N)=O)CCN(c2ncccn2)CC1 | 20.33 | 6.049 and -12.06
Cc1ccc(S(=O)(=O)NCCNC(=O)c2ccoc2)cc1C | 16.88 | 10.43
[H][C@@]12COC[C@@H](CC(=O)NCCOC)[C@]1([H])CN(C(=O)c1cnccn1)C2 | -0.1567 | -4.925
CCn1ccnc1CN1CCN(c2ncnc3ccsc23)CC1C (configuration not stated) | 38.18 | 8.74
Cc1nc(CN2CCCC(NCCCc3ccccc3)C2)no1 (configuration not stated) | -13.86 | -5.94
CNC(=O)C1CCCCN1C(=O)c1cn(CCOC)c2ccccc12 (configuration not stated) | -2.638 | -21.43
CCCC(O)CN1CCC(=O)N(CCOC)Cc2ccccc21 (configuration not stated) | 8.896 | 8.973
O=c1ccc2c([nH]1)CCC(NS(=O)(=O)C1CC1)C2 (configuration not stated) | 8.23 | 11.4
Cc1cccc(CN2CCN(c3ncnc4[nH]cnc34)CC2CCO)n1 (configuration not stated) | 14.21 | -19.61
Cc1cc(CS(=O)(=O)CC(=O)N2c3ccccc3CC2C)no1 (configuration not stated) | -0.9813 | -0.8791
COc1c(CNC2CCOc3c(F)cccc32)c(C)nn1C (configuration not stated) | -19.5 | -32.23
Cc1noc([C@@H]2C[C@H](NC(=O)Nc3ccccc3)CN2C)n1 | -0.7374 and 1.015 | -15.24
O=C(O)C(F)(F)F.O=C(O)C(F)(F)F.[H][C@@]12OCCN(Cc3ccc(C)o3)[C@@]1([H])CC[C@H]2OCc1cccnc1 | - | -49.98
[H][C@@]12C[C@@H](OCCOC)CN1CCN(C(=O)c1ccc(C)nc1)C2 | -17.29 | -36.79
CS(=O)(=O)N1CCOCC2(CCN(Cc3ccc[nH]3)CC2)C1.O=C(O)C(F)(F)F | -31.04 and -6.927 | -18.12
CN1CCC2(Cc3ccccc3CN(C(=O)c3ccc(Cl)cc3)C2)C1 (configuration not stated) | 4.777 | -16.24
NC(=O)CN1CC2(CCC1=O)CCN(Cc1cc(F)cc(F)c1)CC2 | 14.58 | -2.573 and 0.765
Cn1nc(CNc2ncccn2)c2c1CN(c1cnccn1)CC2 | -12.2 | 6.587
Cc1cccc(N2CCOCC3(C2)CN(c2ccoc2)C(=O)CO3)n1.O=C(O)C(F)(F)F (configuration not stated) | 3.903 | -23.07
CCN(CC)c1ncccc1CNCc1ccc(-c2ccn[nH]2)s1 | 17.99 | 1.826
Cc1ccccc1OCC1CCCN(C(=O)CNC(=O)N(C)C)C1 (configuration not stated) | 6.713 and 4.308 | -1.025
CNc1ccc(C(=O)N(C)Cc2ccc3ccccc3n2)cn1 | 9.257 | -21.8
CNS(=O)(=O)c1cccc(CNCc2ccsc2)c1 | 3.629 and -27.09 | 0.3635
CC(C)c1nc(C(=O)N2CCOCC2CC(=O)c2ccco2)cs1 (configuration not stated) | 26.4 | 13.65
CC(C)(C)C(CCO)NC(=O)Nc1ccncc1 (configuration not stated) | -28.06 and -5.884 | 19.39
NC(=O)c1ccccc1NC(=O)CCN1CCN(CCO)CC1 | 29.37 | -8.582
COc1cccc(OCCNCc2ccccc2)c1.O=C(O)C(=O)O | -4.424 | 16
[H][C@]12CC[C@@]([H])(C1)N(Cc1cccc(OC)c1OCCN1CCOCC1)C2 | 10.55 and 7.287 | 15.31
CS(=O)(=O)NC1CCN(C(=O)NCCNc2ccccn2)CC1 | -18.73 | -21.77
CCCN(C(=O)c1cnccn1)c1nc2c(s1)CCc1c-2cnn1C | 29.04 | 20.39
O=C(Nc1cccnc1N1CCSCC1)c1cc2c(s1)CCCCC2 | -11.48 | 1.704
O=C(O)C(F)(F)F.O=C(O)C(F)(F)F.[H][C@@]12COC[C@]1(C(=O)NCc1ccccn1)CN(Cc1scnc1C)C2 | -3.538 | -13.35 and 10.27
O=C(O)C(F)(F)F.[H][C@@]12CCN(c3nnc(C)s3)C[C@]1([H])O[C@@H](C(=O)N1CCOCC1)C2 | -7.931 | -3.694
[H][C@]12CC[C@]([H])(CN(Cc3ccc(F)cc3)C1)N(Cc1cccc(O)c1)C2 | 41.96 and 28 | 33.66 and 30.75
CC(=O)Nc1c(C)noc1/C=C\c1ccc(C)c(S(=O)(=O)NC2CC2)c1 | -17.58 | 12.38
c1ccc(C2CN(c3ncnc4[nH]cnc34)CCO2)cc1 (configuration not stated) | 47.64 | 28.82

The last 4 entries again:

- O=C(O)C(F)(F)F.[H][C@@]12CCN(c3nnc(C)s3)C[C@]1([H])O[C@@H](C(=O)N1CCOCC1)C2 | Mtb glucose medium: -7.931%; Mtb cholesterol medium: -3.694%
- [H][C@]12CC[C@]([H])(CN(Cc3ccc(F)cc3)C1)N(Cc1cccc(O)c1)C2 | Mtb glucose medium: 41.96% and 28%; Mtb cholesterol medium: 33.66% and 30.75%
- CC(=O)Nc1c(C)noc1/C=C\c1ccc(C)c(S(=O)(=O)NC2CC2)c1 | Mtb glucose medium: -17.58%; Mtb cholesterol medium: 12.38%
- c1ccc(C2CN(c3ncnc4[nH]cnc34)CCO2)cc1 (configuration not stated) | Mtb glucose medium: 47.64%; Mtb cholesterol medium: 28.82%